No constants are given. Whether binding was seen depends on the method and setting.
Assays:
[1] = biological target: BT4656^6S-GlcNAc/GlcNS (Bacteroides thetaiotaomicron) (UniProt Q89YS5); assay: SEC-MALS
[2] = biological target: BT3333^6S-GalNAc (Bacteroides thetaiotaomicron) (UniProt Q8A2H2); assay: SEC-MALS

| binding [1] | binding [2] | Binder |
| --- | --- | --- |
| no binding |  | BT4656^6S-GlcNAc/GlcNS (enzyme, UniProt Q89YS5 1-558) MPATEKASAPHWSFLSSDVISIMKSNPSTLLLPLAALSLASCANPQKEETKRPNIIFMMTDDHTTQAMSCYGGNLIQTPNMDRIANEGIRFDNCYAVNALSGPSRACILTGKFSHENGFTDNASTFNGDQQTFPKLLQQAGYQTAMIGKWHLISEPQGFDHWSILSGQHEQGDYYDPDFWEDGKHIVEKGYATDIITDKAINFLENRDKNKPFCMMYHQKAPHRNWMPAPRHLGIFNNTIFPEPANLFDDYEGRGKAAREQDMSIEHTLTNDWDLKLLTREEMLKDTTNRLYSVYKRMPSEVQDKWDSAYAQRIAEYRKGDLKGKALISWKYQQYMRDYLATVLAVDENIGRLLNYLEKIGELDNTIIVYTSDQGFFLGEHGWFDKRFMYEECQRMPLIIRYPKAIKAGSTSSAISMNVDFAPTFLDFAGVEVPSDIQGASLKPVLENEGKTPADWRKAAYYHYYEYPAEHSVKRHYGIRTQDFKLIHFYNDIDEWEMYDMKADPREMNNIFGKAEYAKKQKELMQLLEETQKQYKDNDPDEKETVLFKGDRRLMENR |
|  | no binding | BT3333^6S-GalNAc (enzyme, UniProt Q8A2H2 1-511) MKNVSRLLPLLPGIALLTGCNQKVQKDNGQNSQKPNIIYIFADDLGIGDLSCYGATKVSTPHIDRLAGQGVQFTNAYATSATSTPSRFGLLTGMYPWRQENTGIAPGNSELIIDTACVTMADMLKEAGYATGVVGKWHLGLGPKGGTDFNGHITPNAQSIGFDYEFVIPATVDRVPCVFVENGHVVGLDPNDPITVNYEHKVGDWPTGEENPELVKLKPSQGHNNTIINGIPRIGWMTGGKSALWKDEDIADIITNKAKSFIVSHKEEPFFLYMGTQDVHVPRVPHPRFAGKSGLGTRGDVILQLDWTIGEIMNTLDSLQLTDNTILIFTSDNGPVIDDGYQDQAFERLNGHTPMGIYRGGKYSAYEAGTRIPFIVRWPAKVKPNKQQALFSQIDIFASLAALLKQPLPEDAAPDSQEHLNTLLGKDYTSREYIVQQNLNNTLAIVKGQWKYIEPSDAPAIEYWTKMELGNDRHPQLYDLSADPSEKNNVAKQHPEVVRELSELLESVKTR |
